PubChem BioAssay AID493246 | Drosophila RNAi Screening Center, 2011
In all, the deposit lists about 21,000 reagents; below is a random part of those that have a named target and a result. Over the whole deposit, 429 (2%) got an active call. 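Values are raw and not normalised between plates; calls rest on per-plate z-scores that were not deposited.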 The numbers tell different reagents against one gene apart. Not given: the amount of reagent, the time to read-out.

Assay: 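Genome-wide search for dsRNAs that reduce cell number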 (primary screen)
Cells: Drosophila Kc and S2R+ cells
Reagent: long dsRNA against Drosophila genes
Measured: 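Cell number per well after knock-down, printed as raw plate values; calls were based on per-plate z-scores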
Scale: Kc cell number and S2R+ cell number: higher = more cells remaining
Active means: 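Active when the per-plate z-score of cell number is 3 or more in the direction of fewer cells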

| Gene | dsRNA no. | Kc cell number, rep 1 | Kc cell number, rep 2 | S2R+ cell number, rep 1 | S2R+ cell number, rep 2 | Outcome |
| --- | --- | --- | --- | --- | --- | --- |
| CG30416 | 1 | 1.66e6 | 1.78e6 | 1.20e6 | 1.33e6 | inactive |
| CG2258 | 1 | 4.88e5 | – | 8.83e5 | – | inactive |
| CG13795 | 1 | 1.64e6 | 1.60e6 | 1.15e6 | 1.31e6 | inactive |
| CG11902 | 1 | 1.73e6 | 1.74e6 | 1.05e6 | 1.23e6 | inactive |
| CG31051 | 1 | 5.28e5 | – | 1.00e6 | – | inactive |
| PGAP1 | 1 | 5.25e5 | – | 8.85e5 | – | inactive |
| brun | 1 | 1.18e6 | 1.44e6 | 1.24e6 | 1.17e6 | inactive |
| CG30203 | 1 | 1.49e6 | 1.49e6 | 1.19e6 | 1.35e6 | inactive |
| CG3860 | 1 | 1.37e6 | 1.45e6 | 1.12e6 | 1.10e6 | inactive |
| Lint-1 | 1 | 5.49e5 | – | 6.94e5 | – | inactive |
| CG10969 | 1 | 1.43e6 | 1.45e6 | 1.21e6 | 1.32e6 | inactive |
| CG9265 | 1 | 1.80e6 | 1.84e6 | 1.30e6 | 2.84e5 | inactive |
| CG9265 | 2 | 1.68e6 | 1.79e6 | 1.29e6 | 3.13e5 | inactive |
| Phae1 | 1 | 1.69e6 | 1.90e6 | 1.22e6 | 1.22e6 | inactive |
| CG13876 | 1 | 1.42e6 | 1.22e6 | 1.02e6 | 1.24e6 | inactive |
| CG14110 | 1 | 1.58e6 | 1.66e6 | 1.41e6 | 1.60e6 | inactive |
| ATPsynGL | 1 | 1.61e6 | 1.67e6 | 1.21e6 | 1.37e6 | inactive |
| vtd | 1 | 1.43e6 | 1.39e6 | 1.02e6 | 1.17e6 | inactive |
| CG34302 | 1 | 1.30e6 | 1.35e6 | 9.95e5 | 1.16e6 | inactive |
| CG8312 | 1 | 1.59e6 | 1.65e6 | 1.23e6 | 1.36e6 | inactive |
| bb8 | 1 | 1.41e6 | 1.57e6 | 1.04e6 | 1.14e6 | inactive |
| Vps35 | 1 | 1.32e6 | 1.40e6 | 1.02e6 | 1.07e6 | inactive |
| CG9107 | 1 | 1.32e6 | 1.62e6 | 4.75e5 | 1.95e5 | inactive |
| CG14207 | 1 | 1.65e6 | 1.69e6 | 1.04e6 | 1.23e6 | inactive |
| CG14207 | 2 | 1.70e6 | 1.66e6 | 1.10e6 | 1.33e6 | inactive |
| Ugalt | 1 | 1.76e6 | 1.82e6 | 1.10e6 | 1.26e6 | inactive |
| CG3650 | 1 | 1.55e6 | 1.58e6 | 1.36e6 | 1.45e6 | inactive |
| CG33474 | 1 | 1.45e6 | 1.38e6 | 1.03e6 | 1.15e6 | inactive |
| Patronin | 1 | 1.71e6 | 1.81e6 | 1.31e6 | 1.53e6 | inactive |
| Patronin | 2 | 1.65e6 | 1.71e6 | 1.13e6 | 1.29e6 | inactive |
| Patronin | 3 | 1.59e6 | 1.68e6 | 1.14e6 | 1.31e6 | inactive |
| GluRIIC | 1 | 1.31e6 | 1.28e6 | 8.82e5 | 1.03e6 | inactive |
| CG32121 | 1 | 1.47e6 | 1.64e6 | 1.17e6 | 1.33e6 | inactive |
| Sod3 | 1 | 1.43e6 | 1.51e6 | 1.06e6 | 1.14e6 | inactive |
| CG15570 | 1 | 1.53e6 | 1.50e6 | 1.02e6 | 1.10e6 | inactive |
| Orc5 | 1 | 1.59e6 | 1.63e6 | 1.21e6 | 1.31e6 | inactive |
| Dp1 | 1 | 1.60e6 | 1.56e6 | 9.92e5 | 1.11e6 | inactive |
| CG42561 | 1 | 5.72e5 | – | 7.69e5 | – | inactive |
| Arp2 | 1 | 1.42e6 | 1.41e6 | 1.02e6 | 1.11e6 | inactive |
| mms4 | 1 | 1.62e6 | 1.64e6 | 1.32e6 | 1.46e6 | inactive |
| Ugt301D1 | 1 | 1.72e6 | 1.75e6 | 1.32e6 | 1.62e6 | inactive |
| Pop5 | 1 | 1.69e6 | 1.77e6 | 1.31e6 | 1.33e6 | inactive |
| fand | 1 | 1.07e6 | 1.26e6 | 8.02e5 | 8.35e5 | inactive |
| CG10738 | 1 | 1.45e6 | 1.33e6 | 1.42e6 | 1.52e6 | inactive |
| Tat | 1 | 1.50e6 | 1.47e6 | 1.09e6 | 1.09e6 | inactive |
| LRR | 1 | 1.62e6 | 1.69e6 | 1.30e6 | 1.46e6 | inactive |
| cdm | 1 | 1.69e6 | 1.94e6 | 1.31e6 | 1.41e6 | inactive |
| CG32432 | 1 | 9.60e5 | 6.80e5 | 6.11e5 | 7.01e5 | active |
| CG32432 | 2 | 1.48e6 | 1.45e6 | 8.01e5 | 8.61e5 | active |
| CG32432 | 3 | 1.30e6 | 1.31e6 | 1.32e6 | 1.36e6 | inactive |
| CG32773 (retired record) | 1 | 1.10e6 | 1.28e6 | 1.07e6 | 1.14e6 | inactive |
| CG14053 | 1 | 1.51e6 | 1.50e6 | 1.14e6 | 1.23e6 | inactive |
| Uba3 | 1 | 1.28e6 | 1.36e6 | 1.05e6 | 1.13e6 | inactive |
| Septin5 | 1 | 1.31e6 | 1.44e6 | 1.04e6 | 1.13e6 | inactive |
| Nna1 | 1 | 6.09e5 | – | 8.66e5 | – | inactive |
| CG13029 | 1 | 1.64e6 | 1.84e6 | 1.33e6 | 1.53e6 | inactive |
| Agpat1 | 1 | 1.59e6 | 1.49e6 | 1.03e6 | 1.12e6 | inactive |
| Agpat1 | 2 | 1.62e6 | 1.53e6 | 1.04e6 | 1.08e6 | inactive |
| CalpB | 1 | 1.26e6 | 1.33e6 | 1.35e6 | 1.02e6 | inactive |
| Zir | 1 | 1.28e6 | 1.18e6 | 7.41e5 | 7.09e5 | inactive |
| Arl4 | 1 | 1.53e6 | 1.44e6 | 1.01e6 | 1.11e6 | inactive |
| Lmx1a | 1 | 1.21e6 | 1.27e6 | 1.35e6 | 1.35e6 | inactive |
| Lmx1a | 2 | 1.26e6 | 1.25e6 | 7.34e5 | 7.93e5 | active |
| TrpA1 | 1 | 1.32e6 | 1.25e6 | 1.13e6 | 1.11e6 | inactive |
| eIF2gamma | 1 | 1.05e6 | 1.17e6 | 7.63e5 | 9.35e5 | inactive |
| eIF2gamma | 2 | 1.52e6 | 1.61e6 | 1.33e6 | 1.43e6 | inactive |
| CG33679 | 1 | 1.68e6 | 1.82e6 | 1.02e6 | 1.30e6 | inactive |
| CG2931 | 1 | 1.50e6 | 1.78e6 | 1.15e6 | 1.26e6 | inactive |
| CG6985 | 1 | 1.46e6 | 1.56e6 | 1.17e6 | 1.23e6 | inactive |
| CG15498 | 1 | 1.47e6 | 1.44e6 | 1.11e6 | 1.19e6 | inactive |
| CG13999 | 1 | 1.63e6 | 1.52e6 | 1.23e6 | 1.33e6 | inactive |
| Nup358 | 1 | 1.17e6 | 1.33e6 | 1.13e6 | 1.34e6 | inactive |
| Tango11 | 1 | 4.91e5 | – | 7.24e5 | – | inactive |
| Tango11 | 2 | 4.44e5 | – | 7.43e5 | – | inactive |
| PHDP | 1 | 1.65e6 | 1.74e6 | 1.38e6 | 1.47e6 | inactive |

Hits, of those listed so far:
| Gene | dsRNA no. | Kc cell number, rep 1 | Kc cell number, rep 2 | S2R+ cell number, rep 1 | S2R+ cell number, rep 2 | Outcome |
| --- | --- | --- | --- | --- | --- | --- |
| CG32432 | 1 | 9.60e5 | 6.80e5 | 6.11e5 | 7.01e5 | active |
| CG32432 | 2 | 1.48e6 | 1.45e6 | 8.01e5 | 8.61e5 | active |
| Lmx1a | 2 | 1.26e6 | 1.25e6 | 7.34e5 | 7.93e5 | active |
